{"source": "the supplement of paper PMC8728848", "binders": {"B1": {"name": "PX9916F-bfa-443-24-443 (Bacteroides fragilis) (protein)", "chain": "DIRPVGSVIPQTAEEYRALLARAYLNVPNDRGLACLRSDEMLVNDNEYDRNSYGDIERWNDVSPFPGTSQFTWSNFYNVLFIANQVIESQKEITEGTPEVVNQLVGEAHLLRAYLHFVLVNLHGQPYTKSGALNSKSIPLKLDTDLEKTLGRNTVEEVYTSILSDIEHARELINKEKWETVFSYRFNVLSVDALQSRVSLYMGAWPKCLESAEAVLAKKSVLVDMNETPLALPNHFESVESITALEQVMGSSVNNAVWVPATFLALYQEGDKRLAAYFAAPDENGNRKSSKGGKREFSCTFRVGELYLNAAEAAANMDKLPHARMRLLELMRKRYTPEAYDKKENAVNVMDKNALISEILNERARELAFEGHRWFDLRRTTRPRMVKVLQGKTYILEQDDPRYTIPIPRDAIAANPGLAN"}}, "test_in_all_cases": "glycan array binding signal (z-score within array); higher = stronger binding", "settings_in_all_cases": "glycan notation: IUPAC condensed, linker removed", "key": {"Fuc(a1-3)GlcNAc": {"target": "Fuc(a1-3)GlcNAc", "in_short": "(§1)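 Negative Z-scores can be read as non-binding. The Z-score is calculated within each array and then averaged across arrays of one protein sequence at different concentrations or buffers and across linkers. Arrays, 3228 in all, were curated from the Consortium for Functional Glycomics database and kept only where the protein sequence was available.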"}, "[1]": {"target": "Fuc(a1-3)[Gal(b1-4)]Glc6S", "in_short": "as §1"}, "[2]": {"target": "Fuc(a1-3)[Gal(b1-4)]GlcNAc", "in_short": "as §1"}, "[3]": {"target": "Fuc(a1-3)[Gal(b1-4)]GlcNAc(b1-2)Man", "in_short": "as §1"}, "[4]": {"target": "Fuc(a1-3)[Gal(b1-4)]GlcNAc(b1-2)Man(a1-3)[Fuc(a1-3)[Gal(b1-4)]GlcNAc(b1-2)Man(a1-6)]Man(b1-4)GlcNAc(b1-4)GlcNAc", "in_short": "as §1"}, "[5]": {"target": "Fuc(a1-3)[Gal(b1-4)]GlcNAc(b1-2)Man(a1-3)[Fuc(a1-3)[Gal(b1-4)]GlcNAc(b1-2)Man(a1-6)]Man(b1-4)GlcNAc(b1-4)[Fuc(a1-6)]GlcNAc", "in_short": "as §1"}, "[6]": {"target": "Fuc(a1-3)[Gal(b1-4)]GlcNAc(b1-3)Gal(b1-3)[Fuc(a1-4)]GlcNAc", "in_short": "as §1"}, "[7]": {"target": "Fuc(a1-3)[Gal(b1-4)]GlcNAc(b1-3)Gal(b1-4)[Fuc(a1-3)]GlcNAc", "in_short": "as §1"}, "[8]": {"target": "Fuc(a1-3)[Gal(b1-4)]GlcNAc(b1-3)Gal(b1-4)[Fuc(a1-3)]GlcNAc(b1-3)Gal(b1-4)[Fuc(a1-3)]GlcNAc", "in_short": "as §1"}, "[9]": {"target": "Fuc(a1-3)[Gal(b1-4)]GlcNAc(b1-3)GalNAc", "in_short": "as §1"}, "[10]": {"target": "Fuc(a1-3)[Gal(b1-4)]GlcNAc(b1-6)GalNAc", "in_short": "as §1"}, "[11]": {"target": "Fuc(a1-3)[Gal(b1-4)]GlcNAc(b1-6)[Gal(b1-3)GlcNAc(b1-3)]Gal(b1-4)Glc", "in_short": "as §1"}, "[12]": {"target": "Fuc(a1-3)[Gal(b1-4)]GlcNAc6S", "in_short": "as §1"}, "[13]": {"target": "Fuc(a1-3)[Gal3S(b1-4)]Glc", "in_short": "as §1"}, "[14]": {"target": "Fuc(a1-3)[Gal3S(b1-4)]GlcNAc", "in_short": "as §1"}, "[15]": {"target": "Fuc(a1-3)[Gal3S(b1-4)]GlcNAc6S", "in_short": "as §1"}, "[16]": {"target": "Fuc(a1-3)[GalNAc(b1-4)]GlcNAc", "in_short": "as §1"}, "[17]": {"target": "Fuc(a1-3)[GalNAc(b1-4)]GlcNAc6S", "in_short": "as §1"}, "Fuc(a1-4)GlcNAc": {"target": "Fuc(a1-4)GlcNAc", "in_short": "as §1"}, "Fuc(b1-3)GlcNAc": {"target": "Fuc(b1-3)GlcNAc", "in_short": "as §1"}, "Gal(a1-2)Gal": {"target": "Gal(a1-2)Gal", "in_short": "as §1"}, "Gal(a1-3)Gal": {"target": "Gal(a1-3)Gal", "in_short": "as §1"}, "Gal(a1-3)Gal(b1-3)GlcNAc": {"target": "Gal(a1-3)Gal(b1-3)GlcNAc", "in_short": "as §1"}, "[18]": {"target": "Gal(a1-3)Gal(b1-3)GlcNAc(b1-2)Man", "in_short": "as §1"}, "[19]": {"target": "Gal(a1-3)Gal(b1-3)GlcNAc(b1-2)Man(a1-3)[Gal(a1-3)Gal(b1-3)GlcNAc(b1-2)Man(a1-6)]Man(b1-4)GlcNAc(b1-4)GlcNAc", "in_short": "as §1"}, "[20]": {"target": "Gal(a1-3)Gal(b1-3)GlcNAc(b1-3)GalNAc", "in_short": "as §1"}, "[21]": {"target": "Gal(a1-3)Gal(b1-3)GlcNAc(b1-6)GalNAc", "in_short": "as §1"}, "[22]": {"target": "Gal(a1-3)Gal(b1-3)[Fuc(a1-4)]GlcNAc(b1-2)Man(a1-3)[Gal(a1-3)Gal(b1-3)[Fuc(a1-4)]GlcNAc(b1-2)Man(a1-6)]Man(b1-4)GlcNAc(b1-4)GlcNAc", "in_short": "as §1"}, "Gal(a1-3)Gal(b1-4)Glc": {"target": "Gal(a1-3)Gal(b1-4)Glc", "in_short": "as §1"}, "Gal(a1-3)Gal(b1-4)GlcNAc": {"target": "Gal(a1-3)Gal(b1-4)GlcNAc", "in_short": "as §1"}, "[23]": {"target": "Gal(a1-3)Gal(b1-4)GlcNAc(b1-2)Man", "in_short": "as §1"}, "[24]": {"target": "Gal(a1-3)Gal(b1-4)GlcNAc(b1-2)Man(a1-3)[Gal(a1-3)Gal(b1-4)GlcNAc(b1-2)Man(a1-6)]Man(b1-4)GlcNAc(b1-4)GlcNAc", "in_short": "as §1"}, "[25]": {"target": "Gal(a1-3)Gal(b1-4)GlcNAc(b1-3)GalNAc", "in_short": "as §1"}, "[26]": {"target": "Gal(a1-3)Gal(b1-4)GlcNAc(b1-6)GalNAc", "in_short": "as §1"}, "[27]": {"target": "Gal(a1-3)Gal(b1-4)[Fuc(a1-3)]GlcNAc", "in_short": "as §1"}, "[28]": {"target": "Gal(a1-3)Gal(b1-4)[Fuc(a1-3)]GlcNAc(b1-2)Man(a1-3)[Gal(a1-3)Gal(b1-4)[Fuc(a1-3)]GlcNAc(b1-2)Man(a1-6)]Man(b1-4)GlcNAc(b1-4)GlcNAc", "in_short": "as §1"}, "Gal(a1-3)GalNAc": {"target": "Gal(a1-3)GalNAc", "in_short": "as §1"}, "[29]": {"target": "Gal(a1-3)[Gal(a1-4)]Gal(b1-4)GlcNAc", "in_short": "as §1"}, "[30]": {"target": "Gal(a1-4)Gal(b1-3)GlcNAc(b1-2)Man(a1-3)[Gal(a1-4)Gal(b1-3)GlcNAc(b1-2)Man(a1-6)]Man(b1-4)GlcNAc(b1-4)GlcNAc", "in_short": "as §1"}, "Gal(a1-4)Gal(b1-4)Glc": {"target": "Gal(a1-4)Gal(b1-4)Glc", "in_short": "as §1"}, "Gal(a1-4)Gal(b1-4)GlcNAc": {"target": "Gal(a1-4)Gal(b1-4)GlcNAc", "in_short": "as §1"}, "[31]": {"target": "Gal(a1-4)Gal(b1-4)GlcNAc(b1-2)Man(a1-3)[Gal(a1-4)Gal(b1-4)GlcNAc(b1-2)Man(a1-6)]Man(b1-4)GlcNAc(b1-4)GlcNAc", "in_short": "as §1"}, "[32]": {"target": "Gal(a1-4)Gal(b1-4)GlcNAc(b1-3)Gal(b1-4)Glc", "in_short": "as §1"}, "Gal(a1-4)GlcNAc": {"target": "Gal(a1-4)GlcNAc", "in_short": "as §1"}, "Gal(a1-6)Glc": {"target": "Gal(a1-6)Glc", "in_short": "as §1"}}, "note": "This is one part of the list.", "data": [{"binder": "B1", "values": [{"measurement": "glycan array binding signal (z-score)", "setting": "Fuc(a1-3)GlcNAc", "value": -0.075}, {"measurement": "glycan array binding signal (z-score)", "setting": "[1]", "value": 0.743}, {"measurement": "glycan array binding signal (z-score)", "setting": "[2]", "value": -0.351}, {"measurement": "glycan array binding signal (z-score)", "setting": "[3]", "value": 1.44}, {"measurement": "glycan array binding signal (z-score)", "setting": "[4]", "value": -0.615}, {"measurement": "glycan array binding signal (z-score)", "setting": "[5]", "value": 1.24}, {"measurement": "glycan array binding signal (z-score)", "setting": "[6]", "value": -0.798}, {"measurement": "glycan array binding signal (z-score)", "setting": "[7]", "value": -0.112}, {"measurement": "glycan array binding signal (z-score)", "setting": "[8]", "value": 1.29}, {"measurement": "glycan array binding signal (z-score)", "setting": "[9]", "value": -0.382}, {"measurement": "glycan array binding signal (z-score)", "setting": "[10]", "value": -0.245}, {"measurement": "glycan array binding signal (z-score)", "setting": "[11]", "value": 3.87}, {"measurement": "glycan array binding signal (z-score)", "setting": "[12]", "value": -0.917}, {"measurement": "glycan array binding signal (z-score)", "setting": "[13]", "value": 0.001}, {"measurement": "glycan array binding signal (z-score)", "setting": "[14]", "value": -0.082}, {"measurement": "glycan array binding signal (z-score)", "setting": "[15]", "value": -0.284}, {"measurement": "glycan array binding signal (z-score)", "setting": "[16]", "value": 0.251}, {"measurement": "glycan array binding signal (z-score)", "setting": "[17]", "value": 1.15}, {"measurement": "glycan array binding signal (z-score)", "setting": "Fuc(a1-4)GlcNAc", "value": 1.76}, {"measurement": "glycan array binding signal (z-score)", "setting": "Fuc(b1-3)GlcNAc", "value": -1.11}, {"measurement": "glycan array binding signal (z-score)", "setting": "Gal(a1-2)Gal", "value": -1.03}, {"measurement": "glycan array binding signal (z-score)", "setting": "Gal(a1-3)Gal", "value": -1.32}, {"measurement": "glycan array binding signal (z-score)", "setting": "Gal(a1-3)Gal(b1-3)GlcNAc", "value": -0.405}, {"measurement": "glycan array binding signal (z-score)", "setting": "[18]", "value": -0.056}, {"measurement": "glycan array binding signal (z-score)", "setting": "[19]", "value": 1.22}, {"measurement": "glycan array binding signal (z-score)", "setting": "[20]", "value": -0.788}, {"measurement": "glycan array binding signal (z-score)", "setting": "[21]", "value": 0.175}, {"measurement": "glycan array binding signal (z-score)", "setting": "[22]", "value": 0.589}, {"measurement": "glycan array binding signal (z-score)", "setting": "Gal(a1-3)Gal(b1-4)Glc", "value": -0.007}, {"measurement": "glycan array binding signal (z-score)", "setting": "Gal(a1-3)Gal(b1-4)GlcNAc", "value": -0.052}, {"measurement": "glycan array binding signal (z-score)", "setting": "[23]", "value": -0.372}, {"measurement": "glycan array binding signal (z-score)", "setting": "[24]", "value": 0.81}, {"measurement": "glycan array binding signal (z-score)", "setting": "[25]", "value": -0.363}, {"measurement": "glycan array binding signal (z-score)", "setting": "[26]", "value": 0.265}, {"measurement": "glycan array binding signal (z-score)", "setting": "[27]", "value": -0.754}, {"measurement": "glycan array binding signal (z-score)", "setting": "[28]", "value": 1.48}, {"measurement": "glycan array binding signal (z-score)", "setting": "Gal(a1-3)GalNAc", "value": -0.469}, {"measurement": "glycan array binding signal (z-score)", "setting": "[29]", "value": 0.094}, {"measurement": "glycan array binding signal (z-score)", "setting": "[30]", "value": 0.443}, {"measurement": "glycan array binding signal (z-score)", "setting": "Gal(a1-4)Gal(b1-4)Glc", "value": -0.55}, {"measurement": "glycan array binding signal (z-score)", "setting": "Gal(a1-4)Gal(b1-4)GlcNAc", "value": -0.178}, {"measurement": "glycan array binding signal (z-score)", "setting": "[31]", "value": 1.5}, {"measurement": "glycan array binding signal (z-score)", "setting": "[32]", "value": -0.404}, {"measurement": "glycan array binding signal (z-score)", "setting": "Gal(a1-4)GlcNAc", "value": -0.265}, {"measurement": "glycan array binding signal (z-score)", "setting": "Gal(a1-6)Glc", "value": -0.823}]}]}
